Experimental data: PubChem BioAssay AID1259331 (Drosophila RNAi Screening Center, 2017)
Purpose: 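Knock-downs that alter ATP level after a high zinc chloride dose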 (primary screen). Cell system: Drosophila S2R+ cells. Reagent: long dsRNA against Drosophila genes. Timing: 5 days (4 days knock-down, then 1 day zinc). Challenge: zinc chloride at 15 mM final level for 1 day. Measurement: 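Luminescent ATP assay standing in for viability; Z score is the mean over three replicate plates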. Reading the numbers: mean Z score: higher = more ATP than other wells, better survival under zinc; ATP luminescence: higher = more ATP, more viable cells. Hit rule: 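a reagent is called a hit when its Z score is above 1.5 or below -1.5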. Calls: active = hit, ATP up or down; inactive = not a hit.
Shown is one part, drawn at random, of about 3,100 reagents tested. 126 of all reagents (4.1%) count as active. 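Calls are per reagent; zinc was so toxic that few knock-downs lowered ATP further, so most hits raise ATP.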 Raw values are not corrected between plates. Names joined by + are all predicted targets of the reagent. Not stated in the record: the amount of reagent.

target | amplicon | mean Z score | ATP luminescence, replicate 1 | ATP luminescence, replicate 2 | activity call
CG9981 | DRSC20225 | 0.19 | 70956 | 67406 | inactive
Sply | DRSC07299 | 2.66 | 86754 | 73769 | active
Sply | DRSC27378 | 0.365 | 67013 | 62197 | inactive
CG9825 | DRSC04569 | 0.177 | 50652 | 45217 | inactive
CG9825 | DRSC25634 | -0.0501 | 54579 | 52950 | inactive
Ptr | DRSC04852 | -0.576 | 54321 | 62484 | inactive
Ptr | DRSC21517 | 0.296 | 50549 | 52058 | inactive
Gr47a | DRSC06221 | -0.108 | 90631 | 68812 | inactive
Gr47a | DRSC39508 | -0.287 | 49589 | 43794 | inactive
Alg3 | DRSC04700 | -0.352 | 28132 | 29119 | inactive
Duox | DRSC00571 | -0.586 | 36253 | 40332 | inactive
Duox | DRSC27209 | 0.877 | 78066 | 64919 | inactive
Gr23a | DRSC00410 | -0.344 | 42508 | 39734 | inactive
Gr23a | DRSC27488 | -0.101 | 59517 | 54645 | inactive
Best3 | DRSC09880 | 0.0949 | 77439 | 63084 | inactive
Best3 | DRSC39740 | -0.439 | 58711 | 48509 | inactive
Sec61gamma | DRSC19570 | -0.217 | 38643 | 40262 | inactive
Sec61gamma | DRSC25563 | -0.355 | 40656 | 59620 | inactive
CG31668 | DRSC22584 | 0.152 | 46623 | 48046 | inactive
CG31668 | DRSC39502 | -0.124 | 52024 | 53104 | inactive
VGAT | DRSC07160 | 0.169 | 74592 | 79017 | inactive
Fie | DRSC08158 | -0.291 | 25206 | 32702 | inactive
Fie | DRSC39856 | -0.21 | 50258 | 62844 | inactive
CCHa1-R | DRSC06456 | -0.0243 | 42193 | 43297 | inactive
CCHa1-R | DRSC06715 | -0.428 | 68023 | 63531 | inactive
Sr-CII | DRSC07557 | -0.525 | 58763 | 65314 | inactive
Sr-CII | DRSC25606 | -0.274 | 52401 | 51407 | inactive
nAChRbeta3 | DRSC00325 | 1.77 | 76136 | 86634 | active
Or13a | DRSC20265 | 0.257 | 70010 | 70634 | inactive
Or13a | DRSC39651 | -0.489 | 49812 | 53052 | inactive
CG8028 | DRSC20075 | -0.118 | 41496 | 44788 | inactive
CG12531 | DRSC19466 | -0.0123 | 44531 | 41051 | inactive
CG12531 | DRSC27679 | 0.276 | 66034 | 59740 | inactive
CG33635 | DRSC00006 | -0.0585 | 43571 | 40582 | inactive
bbc | DRSC22309 | 0.219 | 55736 | 58557 | inactive
ATPsynC | DRSC15236 | 0.636 | 51784 | 55806 | inactive
ATPsynC | DRSC39449 | 0.781 | 58917 | 61970 | inactive
CG5810 | DRSC21921 | 0.655 | 54143 | 56208 | inactive
CG5810 | DRSC39633 | -0.137 | 57399 | 54957 | inactive
TyrR | DRSC16242 | 0.318 | 38839 | 60992 | inactive
TyrR | DRSC39601 | -0.142 | 57254 | 58334 | inactive
Nhe3 | DRSC03380 | 0.303 | 56242 | 45457 | inactive
Nhe3 | DRSC39850 | 0.0686 | 55061 | 59449 | inactive
uzip | DRSC04722 | 0.471 | 33302 | 34553 | inactive
uzip | DRSC30045 | -0.403 | 44184 | 44360 | inactive
pll | DRSC17026 | -0.834 | 35325 | 35629 | inactive
pll | DRSC28551 | -0.238 | 65725 | 49589 | inactive

Reagents above marked active:
target | amplicon | mean Z score | ATP luminescence, replicate 1 | ATP luminescence, replicate 2 | activity call
Sply | DRSC07299 | 2.66 | 86754 | 73769 | active
nAChRbeta3 | DRSC00325 | 1.77 | 76136 | 86634 | active

Further results follow:
target | amplicon | mean Z score | ATP luminescence, replicate 1 | ATP luminescence, replicate 2 | activity call
dnt | DRSC25886 | -0.476 | 41119 | 53156 | inactive
dnt | DRSC36749 | -0.591 | 43253 | 39233 | inactive
Arms | DRSC03856 | -0.441 | 40845 | 39216 | inactive
Arms | DRSC04052 | -0.41 | 29205 | 29033 | inactive
Rh2 | DRSC16821 | -0.312 | 38753 | 52350 | inactive
Rh2 | DRSC25598 | -0.208 | 51077 | 53756 | inactive
CG33234 | DRSC07994 | -0.0203 | 42782 | 44046 | inactive
CG33234 | DRSC39757 | -0.11 | 58866 | 58351 | inactive
CG11426 | DRSC11658 | -0.231 | 69704 | 56293 | inactive
CG11426 | DRSC27815 | -0.47 | 58849 | 56117 | inactive
CG11426 | DRSC37070 | -0.316 | 47651 | 40879 | inactive
CG1688 | DRSC23207 | -0.414 | 41531 | 42885 | inactive
Or46a + asRNA:CR43467 | DRSC07490 | 1.8 | 95160 | 1.11e5 | active
Or46a + asRNA:CR43467 | DRSC21590 | -0.125 | 49555 | 41599 | inactive
Or46a + asRNA:CR43467 | DRSC29654 | -0.655 | 45708 | 56984 | inactive
shg | DRSC04714 | -0.748 | 26890 | 26496 | inactive
shg | DRSC38948 | -0.169 | 42002 | 48114 | inactive
CG42594 | DRSC18408 | -0.61 | 53636 | 58265 | inactive
CG42594 | DRSC28979 | 0.223 | 66736 | 62878 | inactive
Dscam1 | DRSC07407 | 0.154 | 73683 | 58300 | inactive
Dscam1 | DRSC21562 | 0.372 | 54201 | 49675 | inactive
Dscam1 | DRSC29101 | -0.459 | 52452 | 56225 | inactive
CG9458 | DRSC16495 | 0.251 | 37519 | 58335 | inactive
wfs1 | DRSC15676 | 0.157 | 34124 | 59260 | inactive
slo | DRSC17057 | -0.187 | 41050 | 46314 | inactive
Atpalpha | DRSC14119 | 0.0748 | 45457 | 49195 | inactive
Atpalpha | DRSC39134 | 0.362 | 54888 | 47596 | inactive
OstDelta | DRSC06980 | -0.401 | 26954 | 28999 | inactive
OstDelta | DRSC27205 | -0.829 | 42816 | 55615 | inactive
mtt | DRSC05107 | 0.851 | 52538 | 51441 | inactive
mtt | DRSC06753 | -0.144 | 35445 | 42628 | inactive
mtt | DRSC07235 | -0.414 | 63599 | 68384 | inactive
GluRIIB | DRSC03335 | 2.26 | 84403 | 52041 | active
GluRIIB | DRSC39568 | -0.209 | 62890 | 54056 | inactive
Slc45-1 | DRSC10427 | -0.422 | 67526 | 55736 | inactive
Or45b | DRSC07488 | -0.152 | 79000 | 66188 | inactive
Or45b | DRSC39528 | 0.129 | 65056 | 36267 | inactive
CG30345 | DRSC05144 | -0.00957 | 39902 | 47250 | inactive
CG30345 | DRSC39521 | -0.234 | 43043 | 50018 | inactive
ifc | DRSC03549 | -0.513 | 48869 | 49092 | inactive
ifc | DRSC39666 | -0.58 | 49692 | 51355 | inactive
